Assay results taken from the supplement of paper PMC9578143, “Small-Molecule Ebselen Binds to YTHDF Proteins Interfering with the Recognition of N^6-Methyladenosine-Modified RNAs” (ACS Pharmacology & Translational Science, 2022).
The list shows a part of the results. Plates or batches differ in their baseline, so values are only roughly comparable.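 Hits were defined as a z-score below −3.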

Target: T1, YTHDF1 YTH domain (aa 365-554) (UniProt Q9BYJ9)
T1 sequence (whole entry): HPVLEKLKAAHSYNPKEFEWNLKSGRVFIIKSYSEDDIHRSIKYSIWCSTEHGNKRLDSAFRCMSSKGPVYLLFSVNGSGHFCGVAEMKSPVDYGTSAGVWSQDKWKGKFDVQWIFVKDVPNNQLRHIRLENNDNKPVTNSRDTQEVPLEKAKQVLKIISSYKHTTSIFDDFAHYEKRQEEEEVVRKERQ
Test: tryptophan fluorescence intensity z-score (mean); higher = higher fluorescence, less quenching (negative = binding / quenching)
Conditions: 10 µM

Tryptophan fluorescence intensity z-score, inactive:
O=c1cc(-c2ccccc2)oc2cc(O)cc(O)c12 (plate: M 17-18) 0.163, Nc1c2c(nc3ccccc13)CCCC2 (plate: M 11-12) 0.122, COC(=O)CC1C(C)(C)C(OC(C)=O)[C@@H]2[C@@H](OC(C)=O)[C@]34O[C@@]2(O)[C@]1(C)C3CC[C@]1(C)C4=CC(=O)O[C@H]1c1ccoc1 (some centres undefined) (plate: M 13-14) -0.111, COc1ccc2c(=O)c(-c3ccc(O)cc3)coc2c1 (plate: M 19-20) 0.53, NC[C@H]1O[C@H](O[C@H]2[C@H](O)[C@@H](O[C@H]3O[C@H](CO)[C@@H](O)[C@H](N)[C@H]3O)[C@H](N)C[C@@H]2N)[C@H](O)[C@@H](O)[C@@H]1O (plate: M 3-4) 0.0651, CC[C@H]1OC(=O)C[C@@H](O)[C@H](C)[C@@H](O[C@@H]2O[C@H](C)[C@@H](O[C@H]3C[C@@](C)(O)[C@@H](O)[C@H](C)O3)[C@H](N(C)C)[C@H]2O)[C@@H](CC=O)C[C@@H](C)C(=O)/C=C/C(C)=C/[C@@H]1CO[C@@H]1O[C@H](C)[C@@H](O)[C@@H](OC)[C@H]1OC (plate: M 9-10) -0.202, CNS(=O)(=O)c1ccc(NC(=O)c2ccccc2C(=O)O)cc1 (plate: M 11-12) -0.729, CCN(CC)CCOc1ccc2c(c1)C(=O)c1cc(OCCN(CC)CC)ccc1-2 (plate: M 13-14) 1.42, COc1ccc(C=CC(=O)O)cc1OC (plate: M 21-22) -0.0934, CC1(C)O[C@@H]2C[C@H]3[C@@H]4CCC5=CC(=O)C=C[C@]5(C)[C@H]4[C@@H](O)C[C@]3(C)[C@]2(C(=O)CO)O1 (plate: M 11-12) 0.0477, O=C(O)Cc1cc(I)c(Oc2cc(I)c(O)c(I)c2)c(I)c1 (plate: M 21-22) 0.254, COc1ccc(C(=O)CC(=O)c2ccc(C(C)(C)C)cc2)cc1 (plate: M 9-10) -0.193, CC1(C)C(=O)C=CC2(C)C1C=CC1(C)C2CCC2(C)C(c3ccoc3)OC(=O)C3OC312 (centres undefined) (plate: M 13-14) 0.73, COc1ncnc(NS(=O)(=O)c2ccc(N)cc2)c1OC (plate: M 13-14) 0.0622, CC(=O)OCC(=O)[C@@]1(O)[C@H](C)C[C@H]2[C@@H]3CCC4=CC(=O)C=C[C@]4(C)[C@@]3(F)[C@@H](O)C[C@@]21C (plate: M 3-4) 0.138, C#CCCCCCCCCCCCC(O)CC(O)COC(C)=O (centres undefined) (plate: M 15-16) 0.317, COc1c(N2C[C@@H]3CCCN[C@@H]3C2)c(F)cc2c(=O)c(C(=O)O)cn(C3CC3)c12 (plate: M 9-10) -1.2, COc1ccc(C(=O)c2ccccc2)c(O)c1 (plate: M 3-4) -0.261, O=c1cc(-c2ccccc2O)oc2cc(O)ccc12 (plate: M 17-18) 0.154, CC(C)NCC(O)c1ccc(O)c(O)c1 (centres undefined) (plate: M 3-4) -0.145, NCCSSCCN (plate: M 21-22) 0.461, CC1(C)C(=O)[C@H]2C[C@]3(O)C4=CC(=O)O[C@@H](c5ccoc5)[C@@]4(C)CCC3[C@](C)(C2=O)[C@H]1CC(=O)O (some centres undefined) (plate: M 13-14) 0.797, CC(C)=CC1C(CO)C1(C)C (centres undefined) (plate: M 17-18) 0.299, Cc1occc(=O)c1O (plate: M 17-18) 0.199, C#C[C@]1(O)CC[C@H]2[C@@H]3CCc4cc(O)ccc4[C@H]3CC[C@@]21C (plate: M 3-4) -0.263, CCC(C(N)=O)c1ccccc1 (centres undefined) (plate: M 23-24) 0.586, CCOc1cc(CC(=O)N[C@@H](CC(C)C)c2ccccc2N2CCCCC2)ccc1C(=O)O (plate: M 13-14) 0.408, COc1cc2c(cc1OC)C1(O)C(=O)c3ccc(O)c(C(=O)O)c3OC1CO2 (centres undefined) (plate: M 15-16) 0.136, CO[C@H]1O[C@H](CO)C(O[C@@H]2OC(C(=O)O)[C@@H](O[C@H]3O[C@H](COS(=O)(=O)O)C(O[C@@H]4OC(C(=O)O)[C@@H](O[C@H]5O[C@H](CO)C(O[C@@H]6OC(C(=O)O)[C@@H](O[C@H]7O[C@H](COS(=O)(=O)O)C(O[C@@H]8OC(C(=O)O)=C[C@H](O)C8OS(=O)(=O)O)[C@H](O)[C@H]7NC(C)=O)[C@H](O)[C@H]6O)[C@H](O)[C@H]5NC(C)=O)[C@H](O)[C@H]4O)[C@H](O)[C@H]3NC(C)=O)[C@H](O)[C@H]2O)[C@H](O)[C@H]1NC(C)=O (some centres undefined) [ENOXAPARINSODIUM(1%wt/volin10%aqDMSO)] (plate: M 9-10) -0.121, CC1(C)CC23C(=O)CCC(O)C2(C)CCC13 (centres undefined) (plate: M 21-22) 0.42, O=NN(CCCl)C(=O)NCCCl (plate: M 13-14) 0.544, CCOC(=O)c1ncn2c1CN(C)C(=O)c1cc(F)ccc1-2 (plate: M 11-12) -0.132, CC(C(=O)O)c1cccc(C(=O)c2ccccc2)c1 (centres undefined) (plate: M 7-8) -0.142, CC(C)c1c(O)ccc2c1CC[C@H]1C(C)(C)CCC[C@]21C (plate: M 13-14) 0.373, CCCC1O[C@@H]2C[C@H]3[C@@H]4CCC5=CC(=O)C=C[C@]5(C)[C@H]4[C@@H](O)C[C@]3(C)[C@]2(C(=O)CO)O1 (some centres undefined) (plate: M 5-6) 0.0138, O=C(CCc1ccc(O)cc1)c1c(O)cc(O)cc1O[C@@H]1OC(CO)[C@@H](O)[C@@H](O)C1O (some centres undefined) (plate: M 17-18) -0.259, NCCNCCNCCN (plate: M 11-12) -0.384, CN(C)CCCSC(=N)N (plate: M 23-24) 0.166, CCN1CCCC(OC(=O)C(c2ccccc2)c2ccccc2)C1 (centres undefined) (plate: M 7-8) 0.131, O=C(O)c1ccc(S(=O)(=O)N(Cl)Cl)cc1 (plate: M 3-4) -0.0962, O=C(Oc1ccccc1C(=O)O)c1ccccc1O (plate: M 1-2) 0.17, COc1c(C)c2c(c(O)c1C/C=C(\C)CCC(=O)O)C(=O)OC2 (plate: M 5-6) 0.249, O=c1c(-c2ccc(O)cc2)coc2cc(O)ccc12 (plate: M 15-16) -0.281, CC(=O)CCCCn1c(=O)c2c(ncn2C)n(C)c1=O (plate: M 9-10) 0.0649, CN1C(=O)OC(C)(C)C1=O (plate: M 13-14) 0.189, C=C1[C@@H]([C@@]2(C)C=CC(=O)C(C)(C)[C@@H]2CC(=O)OC)CC[C@@]2(C)[C@H](c3ccoc3)OC(=O)[C@H]3O[C@]132 (plate: M 13-14) 0.354, C[C@@H]1O[C@@H](OC[C@H]2O[C@@H](Oc3c(-c4ccc(OCCO)c(OCCO)c4)oc4cc(OCCO)cc(O)c4c3=O)[C@H](O)[C@@H](O)[C@@H]2O)[C@H](O)[C@H](O)[C@H]1O (plate: M 23-24) -0.403, C[C@]12C=CC(=O)C=C1CC[C@H]1[C@@H]3C[C@@H](O)[C@](O)(C(=O)CO)[C@@]3(C)C[C@H](O)[C@@]12F (plate: M 13-14) 0.764, CC1(C)O[C@@H]2C[C@H]3[C@@H]4CCC5=CC(=O)CC[C@]5(C)[C@@]4(F)[C@@H](O)C[C@]3(C)[C@]2(C(=O)CCl)O1 (plate: M 13-14) 0.742, COc1ccc(C(=O)O)c(O)c1OC (plate: M 17-18) 0.265, CC(=O)O[C@H]1C[C@@H]2CC[C@@H]3[C@H](CC[C@@]4(C)[C@H]3C[C@H]([N+]3(C)CCCCC3)[C@@H]4OC(C)=O)[C@@]2(C)C[C@@H]1N1CCCCC1 (plate: M 11-12) 0.182, Cc1cc(C)cc(OCC2CNC(=O)O2)c1 (centres undefined) (plate: M 9-10) 0.0474, O=C(O[C@@H]1Cc2c(O)cc(O)cc2O[C@@H]1c1ccc(O)c(O)c1)c1cc(O)c(O)c(O)c1 (plate: M 15-16) 0.192, CCCCCC(=O)O[C@]1(C(C)=O)CC[C@H]2[C@@H]3CCC4=CC(=O)CC[C@]4(C)[C@H]3CC[C@@]21C (plate: M 3-4) 0.0231, CC[C@H]1OC(=O)C[C@@H](O)[C@H](C)[C@@H](O[C@@H]2O[C@H](C)[C@@H](O)[C@H](N(C)C)[C@H]2O)[C@@H](CCN2C[C@H](C)C[C@H](C)C2)C[C@@H](C)C(=O)/C=C/C(C)=C/[C@@H]1CO[C@@H]1O[C@H](C)[C@@H](O)[C@@H](OC)[C@H]1OC (plate: M 9-10) -0.43, CNCCCC12CCC(c3ccccc31)c1ccccc12 (plate: M 3-4) -0.36, Cc1coc2c1C(=O)C(=O)c1c-2ccc2c1CCCC2(C)C (plate: M 21-22) -0.0104, OC(c1cc(C(F)(F)F)nc2c(C(F)(F)F)cccc12)C1CCCCN1 (centres undefined) (plate: M 7-8) 0.162, CC(=O)O[C@H]1C[C@@]2(C)[C@@H](C[C@@H](O)[C@H]3[C@@]4(C)CC[C@@H](O)[C@@H](C)[C@@H]4CC[C@@]32C)/C1=C(\CCC=C(C)C)C(=O)O (plate: M 3-4) 0.13
